Experimental data reported in article doi:10.1101/2024.07.24.604958 (bioRxiv, 2024).

Protein sequences, listed by entry. Tags and fused reporters are not part of them. Lines headed by an entry give the natural chain unless they say otherwise; changes in a name come on top.
UniProt Q8R4P5: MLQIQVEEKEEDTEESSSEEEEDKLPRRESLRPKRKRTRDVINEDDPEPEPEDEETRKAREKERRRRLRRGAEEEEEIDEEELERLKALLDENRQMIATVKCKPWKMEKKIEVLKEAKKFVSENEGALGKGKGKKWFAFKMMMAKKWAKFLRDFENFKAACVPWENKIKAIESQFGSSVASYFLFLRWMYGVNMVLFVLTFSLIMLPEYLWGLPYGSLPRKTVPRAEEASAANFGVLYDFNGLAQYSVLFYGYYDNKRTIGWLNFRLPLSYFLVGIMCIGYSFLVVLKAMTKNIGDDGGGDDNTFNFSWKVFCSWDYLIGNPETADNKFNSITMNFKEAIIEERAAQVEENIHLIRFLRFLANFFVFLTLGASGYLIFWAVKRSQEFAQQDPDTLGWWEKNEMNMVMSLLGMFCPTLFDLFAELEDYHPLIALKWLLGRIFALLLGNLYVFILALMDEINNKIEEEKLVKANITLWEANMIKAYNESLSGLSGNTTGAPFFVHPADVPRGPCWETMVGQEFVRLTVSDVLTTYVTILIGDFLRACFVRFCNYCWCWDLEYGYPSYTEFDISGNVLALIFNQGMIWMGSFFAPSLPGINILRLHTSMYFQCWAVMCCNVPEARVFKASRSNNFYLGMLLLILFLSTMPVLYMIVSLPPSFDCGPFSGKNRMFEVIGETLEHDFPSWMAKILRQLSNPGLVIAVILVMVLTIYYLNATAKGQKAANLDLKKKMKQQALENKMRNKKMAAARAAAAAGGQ

Key:
Experiment in all cases: co-IP
[1] = biological target: TMC1 with CR3 deleted (mouse) (UniProt Q8R4P5)
[2] = biological target: TMC1 with CR2 deleted (mouse) (UniProt Q8R4P5)
[3] = biological target: TMC1 with CR1 deleted (mouse) (UniProt Q8R4P5)

Measured: binding

B1: CIB2 expressed in HEK 293 cells (protein, UniProt Q9Z309 1-187)
chain: MGNKQTIFTEEQLDNYQDCTFFNKKDILKLHARFYELAPNLVPMDYRKSPIVHVPMSLIIQMPELRENPFKERIVEAFSEDGEGNLTFNDFVDMFSVLCESAPRELKANYAFKIYDFNTDNFICKEDLEMTLARLTKSELEEDEVVLVCDKVIEEADLDGDGKLGFADFEDMIAKAPDFLSTFHIRI
binds: all assays above

Results are given in words; binding and its absence hold for the method and conditions named. Binding seen in cells or lysates may run through a third protein. Binding can be weak; no strength is given.
